Test: Melamine formaldehyde PMC leakage
Conditions: for Comment Code: Melamine formaldehyde PMC leakage: code letter J

SMILES	Melamine formaldehyde PMC leakage (Comment Code J)	Comment Code: Melamine formaldehyde PMC leakage
CC1(O)CCC2=C(CCCC2(C)C)C1 (stereo not drawn) [Material 676]	J (Melamine formaldehyde PMC leakage less than or equal to 5%)	
CCC(O)COC1CCCCC1C(C)(C)C (stereo not drawn) [Material 677]	J (Melamine formaldehyde PMC leakage less than or equal to 5%)	
CC1(C)CCC[C@@]2(C)[C@H]1CC[C@]13CO[C@](C)(CC[C@@H]12)O3 [Material 678]	J (Melamine formaldehyde PMC leakage less than or equal to 5%)	J (Melamine formaldehyde PMC leakage less than or equal to 5%)
CC1C(C)(C)C2CCC3CC(C)(C)OC3C2C1(C)C (stereo not drawn) [Material 679]	J (Melamine formaldehyde PMC leakage less than or equal to 5%)	J (Melamine formaldehyde PMC leakage less than or equal to 5%)
CC1C(C)(C)C2CCC3CC(C)(C)OC3C2C1(C)C (stereo not drawn) [Material 680]	J (Melamine formaldehyde PMC leakage less than or equal to 5%)	J (Melamine formaldehyde PMC leakage less than or equal to 5%)
CC(C)=C1CCC2=CC(=O)CC(C)C2(C)C1 (stereo not drawn) [Material 684]	J (Melamine formaldehyde PMC leakage less than or equal to 5%)	
CCC(=O)OC(C)(C)C1CC=C(C)CC1 (stereo not drawn) [Material 686]	J (Melamine formaldehyde PMC leakage less than or equal to 5%)	
CC(=O)OC(C)(C)C1CC=C(C)CC1 (stereo not drawn) [Material 687]		J (Melamine formaldehyde PMC leakage less than or equal to 5%)
C=CC(C)=CCC=C(C)CCC=C(C)C=O [Material 691]	J (Melamine formaldehyde PMC leakage less than or equal to 5%)	
C=C(C)C1CCC2(C)CCC=C(C)C2C1 (stereo not drawn) [Material 692]	J (Melamine formaldehyde PMC leakage less than or equal to 5%)	
CC(C)=CCCC1(C)C2CC3C(C2)C31C (stereo not drawn) [Material 693]	J (Melamine formaldehyde PMC leakage less than or equal to 5%)	
CC(=CCCC1(C)C2CC3C(C2)C31C)CO (stereo not drawn) [Material 694]	J (Melamine formaldehyde PMC leakage less than or equal to 5%)	J (Melamine formaldehyde PMC leakage less than or equal to 5%)
CC1=CCC2CC3C(C)CCC13C2(C)C (stereo not drawn) [Material 696]	J (Melamine formaldehyde PMC leakage less than or equal to 5%)	J (Melamine formaldehyde PMC leakage less than or equal to 5%)
C=CCCC(=O)C1=CCCC(C)(C)C1 [Material 697]	J (Melamine formaldehyde PMC leakage less than or equal to 5%)	
CC1=CC2C(CC1)C(C)=CCC2C(C)C (stereo not drawn) [Material 698]	J (Melamine formaldehyde PMC leakage less than or equal to 5%)	
CCC(=O)C=CC1C(C)=CCCC1(C)C (stereo not drawn) [Material 700]	J (Melamine formaldehyde PMC leakage less than or equal to 5%)	
CC(=O)C=CC1C(C)=CCC(C)C1(C)C (stereo not drawn) [Material 704]	J (Melamine formaldehyde PMC leakage less than or equal to 5%)	
CC1=CCCC(C)=CCC(C)(C)C=CC1 [Material 706]	J (Melamine formaldehyde PMC leakage less than or equal to 5%)	
C=C1CCCC(C)(C)C2C=C(C)CCC12 (stereo not drawn) [Material 707]	J (Melamine formaldehyde PMC leakage less than or equal to 5%)	
CC1=C2C(CC1)C(C)CCC1C2C1(C)C (stereo not drawn) [Material 708]	J (Melamine formaldehyde PMC leakage less than or equal to 5%)	J (Melamine formaldehyde PMC leakage less than or equal to 5%)

SMILES	Melamine formaldehyde PMC leakage (Comment Code J)	Comment Code: Melamine formaldehyde PMC leakage
C=C(C)C1CCC(C)C2=C(C1)C(C)CC2 (stereo not drawn) [Material 709]	J (Melamine formaldehyde PMC leakage less than or equal to 5%)	
C=CC(C)=CCC=C(C)CCC=C(C)C [Material 710]	J (Melamine formaldehyde PMC leakage less than or equal to 5%)	
CC1=CCCC2(C)CCC(C(C)(C)O)CC12 (stereo not drawn) [Material 712]	J (Melamine formaldehyde PMC leakage less than or equal to 5%)	J (Melamine formaldehyde PMC leakage less than or equal to 5%)
CC(C)=CCCC(C)c1ccc(C)cc1 (stereo not drawn) [Material 713]	J (Melamine formaldehyde PMC leakage less than or equal to 5%)	
CC1=CCC23C(C)CCC(C(C)C)C2C13 (stereo not drawn) [Material 714]	J (Melamine formaldehyde PMC leakage less than or equal to 5%)	J (Melamine formaldehyde PMC leakage less than or equal to 5%)
CC1CCC2C(C)(C)C3CC12CC1OC13C (stereo not drawn) [Material 715]	J (Melamine formaldehyde PMC leakage less than or equal to 5%)	
CC1=CC2C(C(C)C)CCC(C)(O)C2CC1 (stereo not drawn) [Material 716]	J (Melamine formaldehyde PMC leakage less than or equal to 5%)	
CC1=CC2C(CC1)C(C)=CCC2C(C)C (stereo not drawn) [Material 717]	J (Melamine formaldehyde PMC leakage less than or equal to 5%)	
CC(C)=CCCC(C)(O)C1CC=C(C)CC1 (stereo not drawn) [Material 718]	J (Melamine formaldehyde PMC leakage less than or equal to 5%)	
CC(C)=CCC=C(C)C1CC=C(C)CC1 (stereo not drawn) [Material 719]	J (Melamine formaldehyde PMC leakage less than or equal to 5%)	
CC(C)=CCCC1(C)C2CC=C(C)C1C2 (stereo not drawn) [Material 720]	J (Melamine formaldehyde PMC leakage less than or equal to 5%)	
CCCCCC(=Cc1ccccc1)CO [Material 721]	J (Melamine formaldehyde PMC leakage less than or equal to 5%)	
CCCCCC(=Cc1ccccc1)COC(C)=O [Material 722]	J (Melamine formaldehyde PMC leakage less than or equal to 5%)	
CCCCCC(=Cc1ccccc1)C(OCC)OCC [Material 723]	J (Melamine formaldehyde PMC leakage less than or equal to 5%)	
CCCCCC(C=O)=Cc1ccccc1 [Material 724]	J (Melamine formaldehyde PMC leakage less than or equal to 5%)	
CC1=CC2C(CC1)C(C)=CCC2C(C)C (stereo not drawn) [Material 725]	J (Melamine formaldehyde PMC leakage less than or equal to 5%)	
CC1=CCCC2(C)CCC3CC12OC3(C)C (stereo not drawn) [Material 726]	J (Melamine formaldehyde PMC leakage less than or equal to 5%)	J (Melamine formaldehyde PMC leakage less than or equal to 5%)
CC(C)=CCCC1=CCC(C)(C=O)CC1 (stereo not drawn) [Material 727]	J (Melamine formaldehyde PMC leakage less than or equal to 5%)	
CCC(C)(O)CCc1ccccc1 (stereo not drawn) [Material 731]	J (Melamine formaldehyde PMC leakage less than or equal to 5%)	
CC(C)CCCC(C)CCCC(C)C=O (stereo not drawn) [Material 741]	J (Melamine formaldehyde PMC leakage less than or equal to 5%)	

SMILES	Melamine formaldehyde PMC leakage (Comment Code J)	Comment Code: Melamine formaldehyde PMC leakage
Cc1ccc(CC(C)C=O)cc1 (stereo not drawn) [Material 742]	J (Melamine formaldehyde PMC leakage less than or equal to 5%)	
C=CCOC(=O)CCC1CCCCC1 [Material 746]	J (Melamine formaldehyde PMC leakage less than or equal to 5%)	
C=CCOC(=O)COCCC(C)C [Material 748]	J (Melamine formaldehyde PMC leakage less than or equal to 5%)	
C=C1CCC2C(C3C(C)CCC13)C2(C)C (stereo not drawn) [Material 750]	J (Melamine formaldehyde PMC leakage less than or equal to 5%)	J (Melamine formaldehyde PMC leakage less than or equal to 5%)
COC(=O)c1ccccc1N=CC1CC(C)=CC(C)C1 (stereo not drawn) [Material 754]	J (Melamine formaldehyde PMC leakage less than or equal to 5%)	
CCC(=O)N(CC)c1cccc(C)c1 [Material 755]		J (Melamine formaldehyde PMC leakage less than or equal to 5%)
CC(C)=CCCC(C)CCCC(C)C=O (stereo not drawn) [Material 757]	J (Melamine formaldehyde PMC leakage less than or equal to 5%)	
CCCCCCCCCOC(C)=O [Material 763]	J (Melamine formaldehyde PMC leakage less than or equal to 5%)	
CCCOC(C)OCCc1ccccc1 (stereo not drawn) [Material 766]	J (Melamine formaldehyde PMC leakage less than or equal to 5%)	
COCCOC(C)OCc1ccccc1 (stereo not drawn) [Material 768]	J (Melamine formaldehyde PMC leakage less than or equal to 5%)	
CCCCCC(C=O)=Cc1ccc(C)cc1 [Material 769]	J (Melamine formaldehyde PMC leakage less than or equal to 5%)	
O=C1CCCCCC=CCCCCCCCCO1 [Material 771]	J (Melamine formaldehyde PMC leakage less than or equal to 5%)	
C=C(C)C1CCC2(C)CCC=C(C)C2C1 (stereo not drawn) [Material 774]	J (Melamine formaldehyde PMC leakage less than or equal to 5%)	
CC1=CCCC2(C)CCC(C(C)(C)O)CC12 (stereo not drawn) [Material 775]	J (Melamine formaldehyde PMC leakage less than or equal to 5%)	J (Melamine formaldehyde PMC leakage less than or equal to 5%)
CC(=O)c1cc2c(cc1C)C(C)(C)C(C)CC2(C)C (stereo not drawn) [Material 776]	J (Melamine formaldehyde PMC leakage less than or equal to 5%)	
CC(C)c1ccc2ncccc2c1 [Material 778]	J (Melamine formaldehyde PMC leakage less than or equal to 5%)	
CC1(C)C2CC=C(CCC=O)C1C2 (stereo not drawn) [Material 781]	J (Melamine formaldehyde PMC leakage less than or equal to 5%)	
CC(=O)CCCC(C)CCCC(C)CCCC(C)C (stereo not drawn) [Material 782]	J (Melamine formaldehyde PMC leakage less than or equal to 5%)	
